Assay results published in PMC4932512.

Sequences of proteins named here, by UniProt entry; tags and fusion partners are left off. A change or cut given only in a name is not applied to a line headed by its entry.
UniProt Q86Y07: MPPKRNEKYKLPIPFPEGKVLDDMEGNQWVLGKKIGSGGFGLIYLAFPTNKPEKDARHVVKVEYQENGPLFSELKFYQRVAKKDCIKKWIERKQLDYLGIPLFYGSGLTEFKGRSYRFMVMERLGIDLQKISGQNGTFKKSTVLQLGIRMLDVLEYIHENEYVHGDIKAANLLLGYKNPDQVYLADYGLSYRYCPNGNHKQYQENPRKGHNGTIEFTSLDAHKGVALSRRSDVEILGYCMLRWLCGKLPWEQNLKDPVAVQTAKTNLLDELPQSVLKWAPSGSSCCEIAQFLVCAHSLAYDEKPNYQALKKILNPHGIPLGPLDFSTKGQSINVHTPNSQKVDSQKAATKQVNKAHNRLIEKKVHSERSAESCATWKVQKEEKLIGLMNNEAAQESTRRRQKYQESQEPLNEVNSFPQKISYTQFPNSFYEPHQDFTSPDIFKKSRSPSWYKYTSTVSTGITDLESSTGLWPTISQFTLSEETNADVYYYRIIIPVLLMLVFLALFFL
UniProt P49841: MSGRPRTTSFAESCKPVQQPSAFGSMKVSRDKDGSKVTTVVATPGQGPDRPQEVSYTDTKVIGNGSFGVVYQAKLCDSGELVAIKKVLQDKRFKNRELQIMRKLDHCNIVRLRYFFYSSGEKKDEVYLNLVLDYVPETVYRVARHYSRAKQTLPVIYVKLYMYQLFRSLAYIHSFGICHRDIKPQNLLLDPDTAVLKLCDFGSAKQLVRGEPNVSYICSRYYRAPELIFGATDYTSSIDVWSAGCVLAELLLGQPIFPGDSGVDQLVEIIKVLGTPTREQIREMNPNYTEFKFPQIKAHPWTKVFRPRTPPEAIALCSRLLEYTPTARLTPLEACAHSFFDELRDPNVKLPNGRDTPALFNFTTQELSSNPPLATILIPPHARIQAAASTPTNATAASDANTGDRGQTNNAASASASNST

Target: Recombinant Flag-VRK2 purified from E. coli (human) (UniProt Q86Y07)
Assay: co-IP; recombinant Flag-VRK2 and GST-GSK3β purified from E. coli; immunoprecipitated with anti-Flag antibody or control IgG; Western blot with anti-GST or anti-Flag; both purified

binding: binds
Substance: Recombinant GST-GSK3β purified from E. coli (from UniProt P49841 1-420) (enzyme)

No constants are given. Whether binding was seen depends on the method and setting. Binding seen in cells or lysates may run through a third protein. Binding can be weak; no strength is given.
